Test results: US8329950B2, “Process for preparation of trans 4-(3,4-Dichlorophenyl)-1,2,3,4-tetrahydro-1Napthalenamine” (Sunovion Pharmaceuticals Inc., priority 2005, dated 2012)

System: mice
Assay: Behavioral Despair Test (Porsolt swim test) in mice
Type: in vivo

Row | Compound | Dunnett test vs vehicle, immobility duration (0.03 mg/kg intraperitoneal) | Dunnett test vs vehicle, immobility duration (0.1 mg/kg intraperitoneal) | Dunnett test vs vehicle, immobility duration (0.3 mg/kg intraperitoneal) | Dunnett test vs vehicle, immobility duration (1 mg/kg intraperitoneal) | Dunnett test vs vehicle, immobility duration (3 mg/kg intraperitoneal) | Dunnett test vs vehicle, immobility duration (10 mg/kg)
1 | N[C@@H]1CC[C@@H](c2ccc(Cl)c(Cl)c2)c2ccccc21 [P, (1R,4S)-trans 4-(3,4-dichlorophenyl)-1,2,3,4-tetrahydro-1-napthalenamine] | ns | * (* indicates a significant difference vs vehicle for P < 0.05 (Dunnett test)) | * (* indicates a significant difference vs vehicle for P < 0.05 (Dunnett test)) | * (* indicates a significant difference vs vehicle for P < 0.05 (Dunnett test)) | * (* indicates a significant difference vs vehicle for P < 0.05 (Dunnett test)) | 
2 | CN(C)CCCN1c2ccccc2CCc2ccccc21 [imipramine] |  |  |  |  |  | * (* indicates a significant difference vs vehicle for P < 0.05 (Dunnett test))
